US12048705B2, “Immunoablative therapies” (AVM Biotechnology, LLC, priority 2018, dated 2024)
For at least one compound, name, drawing or mass did not settle the structure.

Key:
[1] = A20 tumor bearing mice, cell counts by CBC analyzer and chemistry (Table 2); conditions: 15 mg/kg HED on day 28
A20 B cell lymphoma [2] = test: A20 B cell lymphoma mouse model, sensitisation to chemotherapy; format: in vivo; conditions: HED 15 mg/kg dexamethasone base on day 11 and day 14, male mice
[3] = test system: bone marrow mesenchymal stem cells; test: Horse sternal bone marrow MSC number and trilineage differentiation; format: in vivo; conditions: 6 mg/kg HED, one hour IV infusion
B lymphocytes = test: Treatment of patients with autoimmune diseases (paper examples 5 and 9); format: in vivo, human; conditions: acute high dose, patient with an autoimmune disease
Description: Acute high dose prednisone doses range from about 19 mg/kg to about 150 mg/kg, with doses between about 56 mg/kg and about 112 mg/kg being preferred, with a repeat (second) administration of this dose 24 hours later and an optional repeat (third) administration of this dose 48-72 hours after the initial dose.

[4] = test system: bone marrow mesenchymal stem cells; test: Human bone marrow MSC number by CFU-F assay; conditions: oral 3 mg/kg, 48 hours; two patients vs 31 historical controls
IL-2, IL-15, IL-6 = conditions: oral 3 mg/kg, 48 hours
Description: Blood was drawn before drug treatment and 48 hours post-treatment for CBC analysis and flow cytometry to determine lymphocyte and other blood cell populations. Serum was analyzed for cytokine levels.

germinal centers = test: Germinal centers in mouse spleen, FITC-PNA immunofluorescence; format: in vivo; conditions: for Germinal center staining intensity, reduction: 48 hours before spleen harvest
Description: FIG. 2. […] A graph of column plots of average Germinal Center staining intensity measured using immunofluorescent staining of fresh thick spleen sections stained with FITC-PNA is shown. Immunofluorescent intensity was calculated using thresholding and MetaMorph Image Analysis. Columns are average plus SEM.
The spleens were removed, weighed wet, and then fixed in 10% formalin. Subsequently the spleens were sectioned via proprietary methods and then incubated with FITC-PNA at 4 degC for 24 hours, washed, placed on slides and immunofluorescent images were captured. Metamorph software was used to quantify the immunofluorescent signal.

spleen cellularity = conditions: Hinrichs paper; intraperitoneal 10 mg/kg (HED 0.81 mg/kg) day −6, −4, −2; cited from earlier work
[5] = test system: peripheral blood lymphocytes; conditions: oral 3 mg/kg, 48 hours
[6] = test system: peripheral blood T and B lymphocytes; conditions: single oral 0.24 mg/kg; cited from earlier work
thymus = test: Thymus weight / body weight in mice; format: in vivo, mouse; conditions: oral 3, 6, 9, 12 mg/kg HED, 48 hours
pemphigus = conditions: 100 mgs by 2 hour IV infusion daily for 3 days, every 28 days; cited from earlier work
[7] = test system: marginal zone and germinal centers of the spleen; test: Rat spleen marginal zone width (H&E) and germinal center area (BCL-6 staining); format: in vivo; conditions: IV or PO 20, 40, 80 mg/kg (HED 3.23, 6.45, 12.9 mg/kg), 48 hours
lymphocytes, neutrophils = test: Rat complete blood count 48 hours after IV or PO dexamethasone; format: in vivo; conditions: male Lewis rats, IV or PO 20, 40, 80 mg/kg (3.2, 6.5, 12.9 HED)
Description: FIG. 7. […] Data in FIGS. 3, 4, and 6 are from the same rats. […] Oral (left) and IV (right) doses were administered 1×48 hours before blood withdrawal.

tumor = format: in vivo, mouse; conditions: 6, 15 or 21 mg/Kg HED weekly for four cycles
A20 B cell lymphoma [8] = test: A20 B cell lymphoma mouse model, tumor volume; format: in vivo; conditions: 15 mg/kg HED

For `C[C@@H]1C[C@H]2[C@@H]3CCC4=CC(=O)C=C[C@]4(C)[C@@]3(F)[C@@H](O)C[C@]2(C)[C@@]1(O)C(=O)CO` [dexamethasone], the “peripheral lymphodepletion in tumor bearing mice” value [1] was “not observed”, the tumor growth (A20 B cell lymphoma [2]) was “continued tumor growth” and the “trilineage differentiation capacity of MSC towards osteocytes, chondrocytes or adipocytes” value [3] was “did not alter”. The “sternal BM MSC stem cell number” value ([3]; 48 hours) was “doubled”, the “reduction of B lymphocyte numbers” value (B lymphocytes) was “greater than 90%” and the “reduction of memory B cell populations” value (B lymphocytes) was “greater than 90%”. For the same compound, the “increase of ileac crest bone marrow MSC (CFU-F)” value [4] was “almost two fold”, the “patients with elevated levels of IL-2” value (IL-2, IL-15, IL-6) was 3 of 4 and the “patients with elevated levels of IL-15” value (IL-2, IL-15, IL-6) was 4 of 4. For the same compound, the “Germinal center staining intensity, reduction” value (germinal centers; HED 6 mg/kg) was “apparent”, the “Germinal center staining intensity, reduction” value (germinal centers; HED 9 and 12 mg/kg) was “significantly reduced” and the “FITC-PNA immunofluorescence of spleen germinal centers” value (germinal centers; IP HED 9.3 mg/kg, 96 hours before spleen harvest) was “almost no immunofluorescent signal”. The reduced spleen cellularity (spleen cellularity) was 99%, the “patients responding with lymphodepletion (un-normalized flow cytometry)” value [5] was 2 of the 4 and the “patients with lymphocytosis response in CD3 and CD4 lymphocytes” value [5] was 2 of 4. The “patients with lymphocytosis response in CD8, B lymphocytes and NK cells” value [5] was 1 of 4, the “patients who depleted CD3, CD4 and CD8 positive lymphocytes” value ([5]; four patients) was 2 of 4 and the “patients who depleted NK cells” value ([5]; four patients) was 3 of 4. The “patients who depleted Tregs and B lymphocytes” value ([5]; four patients) was 1 of 4, the “suppression of peripheral blood T and B lymphocytes” value [6] was 80% and the “time at which recovery begins” value [6] was 12 h. For the same compound, the “time to normal levels” value [6] was no more than 24 h, the “thymic mass and volume (thymus weight/body weight)” value (thymus) was “reduces thymic mass and volume” and the time to cure (pemphigus) was 3 and 12. For the same compound, the “germinal center area (BCL-6 staining)” value [7] was “reduced at all dexamethasone doses”, the “marginal zone width/area in spleen” value [7] was “reduced at all dexamethasone doses” and the “lymphocyte count vs Placebo” value (lymphocytes, neutrophils) was “significantly reduced”. For the same compound, the “average cells per tumor density” value (tumor) was “reduce average cells per tumor density” and the “tumor volume compared with PBS control” value (A20 B cell lymphoma [8]) was “significantly reduced tumor volume”.
